# Results deposited as PubChem BioAssay AID686938 (Drosophila RNAi Screening Center, 2013)
# Assay: 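Fly genes required for calcium entry once internal stores are emptied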 (primary screen)
# Cell system: Drosophila S2R+ cells
# Knock-down reagent: long dsRNA against Drosophila genes, about 0.25 µg dsRNA per well, roughly 10,000 cells
# Timing: 5 days of knock-down before the calcium assay
# Conditions: thapsigargin (SERCA pump blocker) to empty calcium stores; entry signal taken 4 min after adding it
# Measured: 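Duplicate raw fluo-4 intensities per well from a plate reader, at rest and four minutes after thapsigargin emptied calcium stores; entry-to-rest ratio filled for only some wells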
# Reading the numbers: calcium entry signal: higher = stronger calcium signal after store depletion; resting calcium signal: higher = higher resting calcium signal
# Hit rule: 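Called when the plate z-score of the entry-to-rest ratio, mean of duplicates, falls below −3; wells with low overall dye signal (Fmax z below −2) or more than five off-targets excluded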
# Calls: active = strongly reduced calcium entry; inactive = no strong reduction
# The screen tested about 23,000 reagents; shown is a random part of those with a known target gene and a result. Of all reagents, 75 (0.33%) got an active call. 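Raw plate signals without normalisation; calls rest on plate z-scores that were not deposited; ratio present for only 364 wells.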 Entries without a mark were called inactive. The numbers tell different reagents against one gene apart. A plus sign joins genes that one reagent is predicted to hit. The record does not give: the dose of the treatment.
target,reagent no.,"calcium entry signal, replicate 1 (fluorescence units)","calcium entry signal, replicate 2 (fluorescence units)","resting calcium signal, replicate 1 (fluorescence units)","resting calcium signal, replicate 2 (fluorescence units)"
CG4610,1,3.45e7,3.67e7,1.77e7,1.70e7
CG4610,2,3.42e7,2.52e7,1.71e7,1.13e7
CG14960,1,2.39e7,3.06e7,1.25e7,1.42e7
vir (virilizer),1,3.05e7,2.59e7,1.49e7,1.24e7
CG12480,1,2.86e7,3.87e7,1.52e7,1.84e7
CG15425,1,2.17e7,2.34e7,1.14e7,1.15e7
CG11566 (retired record) + stg1,1,3.23e7,4.26e7,2.04e7,2.04e7
CG11566 (retired record) + stg1,2,3.69e7,4.95e7,2.14e7,2.33e7
CG11566 (retired record) + stg1,3,3.40e7,4.51e7,1.99e7,1.91e7
CG11566 (retired record) + stg1,4,3.70e7,4.46e7,2.23e7,2.08e7
Mink (Mitotic spindle and nuclear protein),1,4.42e7,4.52e7,2.03e7,1.97e7
Doc3 (Dorsocross3),1,3.68e7,3.91e7,1.67e7,1.80e7
PCID2 (PCI domain-containing protein 2),1,2.66e7,2.65e7,2.13e7,1.18e7
CG12511,1,3.34e7,2.76e7,1.46e7,1.30e7
Acp53C14a (Accessory gland protein 53C14a),1,3.96e7,4.68e7,1.70e7,2.48e7
CG32444,1,3.38e7,3.79e7,1.62e7,2.58e7
en (engrailed),1,4.56e7,3.54e7,2.68e7,1.76e7
CG33640,1,3.57e7,4.93e7,1.85e7,2.05e7
CG11279,1,3.01e7,3.52e7,1.58e7,1.64e7
CG12567,1,4.24e7,4.09e7,2.30e7,1.95e7
TTLL4A (Tubulin tyrosine ligase-like 4A),1,3.81e7,,1.69e7,
CG13003,1,3.30e7,3.50e7,1.65e7,1.46e7
vkg (viking),1,3.73e7,4.01e7,1.81e7,1.93e7
Polr2B (RNA polymerase II subunit B),1,1.32e7,1.48e7,8.41e6,8.48e6
CG17075,1,3.86e7,,2.03e7,
"PTPMT1 (Protein tyrosine phosphatase, mitochondrial 1)",1,4.18e7,3.12e7,2.06e7,1.49e7
TwdlX (TweedleX),1,3.35e7,3.78e7,1.74e7,1.69e7
CG14073,1,2.30e7,5.17e7,1.17e7,1.99e7
Or46a + asRNA:CR43467,1,2.61e7,3.00e7,1.26e7,1.46e7
Or46a + asRNA:CR43467,2,2.72e7,2.98e7,1.23e7,1.41e7
Or46a + asRNA:CR43467,3,3.56e7,2.92e7,1.78e7,1.32e7
CG15200,1,3.53e7,4.08e7,1.76e7,1.87e7
hbs (hibris),1,3.57e7,5.47e7,1.83e7,2.37e7
fat-spondin,1,4.25e7,3.82e7,1.98e7,1.84e7
"SdhBL (Succinate dehydrogenase, subunit B (iron-sulfur)-like)",1,5.43e7,4.37e7,2.41e7,1.84e7

Copied from the list.
Entry for Or46a + asRNA:CR43467 #2 under “resting calcium signal, replicate 1 (fluorescence units)”: 1.23e7
Under “calcium entry signal, replicate 1 (fluorescence units)”, CG13003 is entered as 3.30e7
Under “calcium entry signal, replicate 1 (fluorescence units)”, Or46a + asRNA:CR43467 #1 reads 2.61e7

Continued:
target,reagent no.,"calcium entry signal, replicate 1 (fluorescence units)","calcium entry signal, replicate 2 (fluorescence units)","resting calcium signal, replicate 1 (fluorescence units)","resting calcium signal, replicate 2 (fluorescence units)"
elfless,1,4.64e7,3.77e7,1.98e7,1.79e7
cal1 (chromosome alignment defect 1),1,3.68e7,3.46e7,2.14e7,1.82e7
CG9875,1,3.10e7,3.55e7,1.60e7,1.66e7
CG43322,1,3.58e7,4.19e7,1.75e7,1.97e7
CG6891,1,4.91e7,5.76e7,2.51e7,2.20e7
Jon66Cii (Jonah 66Cii),1,2.32e7,3.26e7,1.16e7,1.45e7
CG15221,1,3.84e7,4.44e7,1.96e7,2.10e7
Spn38F (Serpin 38F),1,5.51e7,5.87e7,2.86e7,2.46e7
Jhbp6 (Juvenile hormone binding protein 6),1,2.39e7,3.70e7,1.19e7,1.61e7
CG17267,1,4.20e7,4.96e7,6.77e7,2.21e7
CG14506,1,3.23e7,4.64e7,1.57e7,1.93e7
Bap170 (Brahma associated protein 170kD),1,4.19e7,,2.04e7,
Bap170 (Brahma associated protein 170kD),2,3.67e7,3.24e7,2.06e7,1.58e7
CG30288,1,2.36e7,4.74e7,1.19e7,2.39e7
ana3 (anastral spindle 3),1,2.77e7,4.37e7,1.33e7,1.79e7
CG32651,1,3.39e7,4.23e7,1.51e7,2.13e7
CG13409,1,4.62e7,4.33e7,5.74e7,2.16e7
eff (effete),1,1.81e7 (active),2.35e7,1.34e7,6.12e7
CG15891 + CG15892,1,3.51e7,3.84e7,1.57e7,1.83e7
CG15891 + CG15892,2,2.53e7,3.84e7,1.27e7,1.70e7
CG7857,1,2.91e7,5.26e7,1.55e7,2.04e7
Ns4 (Nucleostemin 4),1,2.50e7,,1.38e7,
Ada (Adenosine deaminase),1,4.07e7,5.22e7,2.05e7,2.21e7
